For at least one entry, the source does not settle the construct or the ends of the probe. Where a protein sequence is shown, tags need not be part of it.

The target of data set [1] is T1, ELF5 Δ33 del1-33 (UniProt Q9UKW6).
T1 sequence (looked up): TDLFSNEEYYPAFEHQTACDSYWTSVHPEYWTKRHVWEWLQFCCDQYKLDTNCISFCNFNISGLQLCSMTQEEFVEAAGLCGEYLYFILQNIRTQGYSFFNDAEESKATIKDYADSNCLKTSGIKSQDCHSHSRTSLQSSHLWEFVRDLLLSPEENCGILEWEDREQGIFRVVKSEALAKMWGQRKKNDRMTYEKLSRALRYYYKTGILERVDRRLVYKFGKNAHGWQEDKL
The data set can be described thus: EMSA. Conditions: 200 ng protein in 20 ul; 10 mM EDTA, 50 mM DTT, 100 mM Tris pH 7.5, 1 M NaCl, 1 mg/ml BSA (probably stock concentrations); recombinant protein; residues 34-265; protein details: His6 (pQE-30); label: 32P 5' end. In general terms: Mobility shift assays separate free from complexed probe on a gel.

The target of data set [2] is T1, ELF5 Δ33 del1-33. Nature of the data set: competition with a labelled probe. To be noted: 100-fold excess unlabelled, against labelled N1; recombinant protein; residues 34-265; protein details: His6 (pQE-30); label: 32P 5' end.

As to “CCACCAGGAAAGAAAACACCG (double strand) [MUC4 -216 Ets wt]”, the binding result in the data set with ELF5 Δ33 del1-33 [1] and with ELF5 Δ33 del1-33 [2] was “binds” in each case.

These data come from article PMC2951341.
